The other results are listed elsewhere or left out. Single values are uncertain, as repeats are few or missing.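 Cells were imaged in 1,536-well plates, and nuclei stained with an antibody against cleaved PARP were counted against all DNA-stained nuclei to give the apoptosis fraction. Screening doses were chosen to leave most cells alive, and resting and induced cleaved-PARP levels differ strongly between cell lines.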

For the test, the system named is COLO792. The test is described as follows: cleaved PARP positive nuclei fraction relative to DMSO control; melanoma cells; higher = more apoptosis. The settings on record: library dose: low library concentration; 72 h.
As to `CN(NC(=O)CC(=O)NN(C)C(=S)c1ccccc1)C(=S)c1ccccc1` + CCCCCCCCCCCC1=C(O)C(=O)C=C(O)C1=O [Embelin] (first compound 0.006 µM, partner dose 1.2 µM), the “cleaved PARP positive nuclei fraction” value was 173%.
Next, `COc1ccc2c(c1)CCC1C2CCC2(C)C(NCCCCCCN3C(=O)C=CC3=O)CCC12` (configuration not stated) + O=c1cc(-c2cccc3c2Sc2ccccc2S3)oc(N2CCOCC2)c1 [KU55933] (first compound 0.4 µM, partner dose 1 µM): 143%; `COc1ccc2c(c1)CCC1C2CCC2(C)C(NCCCCCCN3C(=O)C=CC3=O)CCC12` (configuration not stated) + Oc1nc(-c2ccc(C(F)(F)F)cc2)nc2c1CSCC2 [XAV939] (first compound 0.4 µM, partner dose 2 µM): 220%; `O=C(O)c1ccc(-c2c[nH]c3ncc(-c4ccccc4)cc23)cc1C1CCCC1` + COc1ccc2c(c1)CCC1C2CCC2(C)C(NCCCCCCN3C(=O)C=CC3=O)CCC12 [U73122] (first compound 0.16 µM, partner dose 0.4 µM): 93.3%.
In the case of `CCc1ccc(CCOc2ccc(CC3SC(=O)NC3=O)cc2)nc1` (configuration not stated) [pioglitazone] + Oc1nc(-c2ccc(C(F)(F)F)cc2)nc2c1CSCC2 [XAV939] (first compound 2 µM, partner dose 2 µM), the “cleaved PARP positive nuclei fraction” value stood at 384%.
As to `COc1cc2c(Oc3ccc4[nH]c(C)cc4c3F)ncnc2cc1OCCCN1CCCC1` [cediranib] + COc1cc2ncnc(Nc3ccc(Oc4ccccc4)cc3)c2cc1OC [SrcI1] (first compound 0.4 µM, partner dose 2 µM), the “cleaved PARP positive nuclei fraction” value came to 206%.
As for `N#Cc1c(O)c2c(-c3ccc(-c4ccccc4O)cc3)csc2[nH]c1=O` + COc1cc2ncnc(Nc3ccc(Oc4ccccc4)cc3)c2cc1OC [SrcI1] (first compound 2 µM, partner dose 2 µM), the “cleaved PARP positive nuclei fraction” value was found to be 71%.
With `CN(NC(=O)CC(=O)NN(C)C(=S)c1ccccc1)C(=S)c1ccccc1` + CC(C)CCN1c2nc(Nc3cc(F)c(O)c(F)c3)ncc2N(C)C(=O)C1C [BID1870] (first compound 0.006 µM, partner dose 0.2 µM), the “cleaved PARP positive nuclei fraction” value amounted to 233%.
Take `CCc1ccc(CCOc2ccc(CC3SC(=O)NC3=O)cc2)nc1` (configuration not stated) [pioglitazone] + N#Cc1c(O)c2c(-c3ccc(-c4ccccc4O)cc3)csc2[nH]c1=O [A769662] (first compound 2 µM, partner dose 2 µM): the “cleaved PARP positive nuclei fraction” value worked out at 155%.
With `Oc1nc(-c2ccc(C(F)(F)F)cc2)nc2c1CSCC2` + CCCCCCCCCCCC1=C(O)C(=O)C=C(O)C1=O [Embelin] (first compound 2 µM, partner dose 1.2 µM), the “cleaved PARP positive nuclei fraction” value is 147%.
In the case of `CCN(CC)CCCCNc1ncc2cc(-c3cc(OC)cc(OC)c3)c(NC(=O)NC(C)(C)C)nc2n1` + Cn1cc(/C=C2\C(=O)Nc3cccnc32)c2ccccc21 [GW441756] (first compound 0.1 µM, partner dose 0.4 µM), the “cleaved PARP positive nuclei fraction” value amounted to 54.7%.
With `CCc1ccc(CCOc2ccc(CC3SC(=O)NC3=O)cc2)nc1` (configuration not stated) [pioglitazone] + Cn1cc(/C=C2\C(=O)Nc3cccnc32)c2ccccc21 [GW441756] (first compound 2 µM, partner dose 0.4 µM), the “cleaved PARP positive nuclei fraction” value is 242%.
In the case of `COc1ccc(COc2ccc(Cc3cnc(N)nc3N)cc2OC)cc1` + COc1cc2ncnc(Nc3ccc(Oc4ccccc4)cc3)c2cc1OC [SrcI1] (first compound 1 µM, partner dose 2 µM), the “cleaved PARP positive nuclei fraction” value is 121%.
Take `O=S(=O)(c1ccccc1)N(CC(F)(F)F)c1ccc(C(O)(C(F)(F)F)C(F)(F)F)cc1` + COc1cc2ncnc(Nc3ccc(Oc4ccccc4)cc3)c2cc1OC [SrcI1] (first compound 1.4 µM, partner dose 2 µM): the “cleaved PARP positive nuclei fraction” value was 101%.
Next, `COc1ccc2c(c1)CCC1C2CCC2(C)C(NCCCCCCN3C(=O)C=CC3=O)CCC12` (configuration not stated) + Cn1cc(/C=C2\C(=O)Nc3cccnc32)c2ccccc21 [GW441756] (first compound 0.4 µM, partner dose 0.4 µM): 93.8%.
As for `CN(NC(=O)CC(=O)NN(C)C(=S)c1ccccc1)C(=S)c1ccccc1` + Cc1cc([N+](=O)[O-])ccc1NS(=O)(=O)c1cc(Cl)ccc1Cl [FH535] (first compound 0.006 µM, partner dose 1 µM), the “cleaved PARP positive nuclei fraction” value amounted to 239%.
As for `N#Cc1c(O)c2c(-c3ccc(-c4ccccc4O)cc3)csc2[nH]c1=O` + c1cc(-c2cnn3cc(-c4ccc(OCCN5CCCCC5)cc4)cnc23)ccn1 [Dorsomorphin] (first compound 2 µM, partner dose 0.4 µM), the “cleaved PARP positive nuclei fraction” value was found to be 74%.

For the origin of these results see the supplement of paper PMC4604168 (melanoma cell lines).
